According to PubChem BioAssay AID504467 (National Center for Advancing Translational Sciences (NCATS), 2011):
The campaign covered roughly 330,000 compounds. About 7,700 (2.3%) were called active. Inconclusive results, whose numbers are uncertain, are shown with a selection of clear calls. The call rests on the fitted dose curve; in most records, active means well fitted inhibition curve with a large enough effect; inconclusive means small, poorly fitted or top-dose-only effect, or effect the other way; inactive means flat fitted curve, though single readings scatter. A potency beside an inconclusive call is a rough fit, not a confirmed value.
On the % scale 0 is the no-effect control and ±100 the full control effect; potency means the concentration at half of the fitted maximal effect.

Assay: qHTS screen for small molecules that inhibit ELG1-dependent DNA repair in human embryonic kidney (HEK293T) cells expressing luciferase-tagged ELG1; further: nearly all actives have a fitted effect of over 55% in size
Settings: HEK293T ELG1-luciferase reporter, luminescence, 16 h, DNA damage induced by 5-fluorouridine; activity change, negative = inhibition: at 46.1 µM (top of the series)
How it was run: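 In this reporter screen, reduction of luminescence relative to DMSO vehicle indicated activity. Compounds and 5-fluorouridine were added together to 2,000 cells per well, incubated for 16 hr at 37 °C, then developed with ONE-Glo.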
With Cc1cc(-c2c(C)[nH]n(-c3ccc(Cl)cc3)c2=O)n[nH]1 the Potency was inconclusive: 7.31 µM [activator, partial curve].
With Cc1nc2c(Cl)cccc2[nH]1 the “activity change, negative = inhibition” value was inactive: 20.2%.
In the case of COc1cccc(/C=N/NC(=O)c2nc(-c3ccccc3)cc(-c3ccccc3)n2)c1O, the Potency was inconclusive: 2.06 µM [inhibitor, full curve, poor fit].
In the case of COCCNC(=O)/C(C#N)=C/c1ccc(-c2ccc(OC)cc2[N+](=O)[O-])o1, the “activity change, negative = inhibition” value was inactive: 4.14%.
In the case of O=C(COc1cc(Cl)c(Cl)cc1Cl)Nc1ccncc1, the Potency was inconclusive: 23.1 µM [activator, single point].
With O=C(O)c1ccccc1C(=O)Nc1ccc(Br)c(C(F)(F)F)c1 the Potency was inconclusive: 20.6 µM [activator, single point].
For CCOc1cc(-c2noc(CCC(=O)NCCc3ccccc3)n2)ccc1OC, the “activity change, negative = inhibition” value was inactive: -17.6%.
With CCCOc1ccccc1N/C(=N/c1nc(C)cc(C)n1)NC(=O)COc1ccc(OC)cc1 the Potency was inconclusive: 18.4 µM [inhibitor, single point].
In the case of O=C1Nc2cc(C(=O)NCCCN3CCCC3)ccc2S/C1=C/c1ccccc1F, the “activity change, negative = inhibition” value was inactive: 4.08%.
For Cc1cc(C)cc(NC(=O)c2cccnc2)c1, the “activity change, negative = inhibition” value was inactive: 4.37%.
For CC1CCCN(CCCNC(=O)c2ccc(NC(=O)C3=CSCCO3)cc2)C1 (centres undefined), the Potency was inconclusive: 23.1 µM [activator, partial curve, poor fit].
In the case of COc1cccc(/C=N\n2c(C)nnc2C)c1OC, the Potency was inconclusive: 29.1 µM [activator, single point].
With COc1ccccc1CNC(=O)CN1C(=O)NC(c2ccccc2)(c2ccc(C)c(C)c2)C1=O (centres undefined) the Potency was inconclusive: 29.1 µM [inhibitor, single point].
With COc1ccc(Cl)cc1-n1c(N)c(C(N)=O)sc1=S the “activity change, negative = inhibition” value was inactive: 13.5%.
For O=C(NC1CCN(Cc2ccc(Cl)cc2Cl)CC1)c1ccccc1, the Potency was active: 13 µM.
With COc1ccc(-c2cc(-c3cccs3)c(C#N)c(SCC(=O)NCc3ccccc3OC)n2)cc1 the Potency was inconclusive: 6.51 µM [inhibitor, single point].
For CCOC(=O)c1cnc(SCC(=O)Nc2cc(C(F)(F)F)ccc2N2CCOCC2)nc1N, the “activity change, negative = inhibition” value was inactive: 8.29%.
For Nc1nonc1C(=O)NCCNCc1ccccc1OCc1ccc(F)cc1, the “activity change, negative = inhibition” value was inactive: 0.128%.
With CC1(C)CC(=O)C2=C(C1)N(c1ccc(F)cc1)C(=O)CC2c1cccnc1 (centres undefined) the Potency was inconclusive: 13 µM [activator, partial curve, poor fit].
In the case of CCOc1cc(/C=N/NC(=O)c2ccc(CN3CCOCC3)cc2)ccc1OCc1ccccc1, the Potency was active: 18.4 µM.
In the case of COc1ccc(-c2nc(CSCC(=O)N3CCN(C)CC3)c(C)o2)cc1OC, the “activity change, negative = inhibition” value was inactive: 3.89%.
With COc1ccccc1NC(=S)NCCc1ccc(F)cc1 the “activity change, negative = inhibition” value was inactive: -8.87%.
In the case of Cc1cccc(N2CCN(C(=O)c3ccc4c(c3)NC(=O)C(CSCc3ccc(F)cc3)N4)CC2C)c1 (centres undefined), the “activity change, negative = inhibition” value was inactive: 5.62%.
With O=C(CNc1ccccc1-c1ccccc1)NCc1ccccc1 the “activity change, negative = inhibition” value was inactive: 0.288%.
With Cc1ccnc(NC(=O)c2cc3ccccc3oc2=O)c1 the Potency was inconclusive: 2.31 µM [activator, full curve].
In the case of CC(COc1ccccc1)N1CCC(CO)(CCc2ccccc2)CC1 (centres undefined), the “activity change, negative = inhibition” value was inactive: -6.6%.
With COc1ccc(CN(C(=O)c2cc3ccccc3oc2=O)C2CCS(=O)(=O)C2)cc1 (centres undefined) the “activity change, negative = inhibition” value was inactive: 26.2%.
With Cc1ccc(NC(=O)Cn2ncc3ccccc32)c(Cl)c1 the Potency was inconclusive: 9.2 µM [activator, partial curve].
With CCOc1ccc(NC(=O)Nc2nnc(CC)s2)cc1 the Potency was inconclusive: 20.6 µM [activator, single point].
In the case of COc1ccc(OCC(O)CNC(=O)c2ccccc2)cc1 (centres undefined), the “activity change, negative = inhibition” value was inactive: -6.43%.
For NNc1nc2c(Cl)cccc2s1, the Potency was inconclusive: 16.4 µM [activator, partial curve].
With CCc1ccc(N(CC(=O)NC2CC2)S(=O)(=O)c2ccc(C)cc2)cc1 the “activity change, negative = inhibition” value was inactive: 14.3%.
In the case of COc1ccc(NC(=O)N(C)C[C@H]2Oc3c(NS(=O)(=O)c4cccs4)cccc3C(=O)N([C@@H](C)CO)C[C@@H]2C)cc1, the Potency was inconclusive: 18.3 µM [activator, single point].
In the case of CCOC(=O)c1sc(NC(=O)CSc2nc3c(cc2C#N)CCCCC3)c(C#N)c1C, the Potency was inconclusive: 29.1 µM [inhibitor, single point].
For COc1cc(OC)cc(C(=O)Nc2sc3c(c2C(N)=O)CCC3)c1, the Potency was inconclusive: 6.51 µM [activator, partial curve].
With Cc1nn(-c2ccccc2)c2ncc(C(=O)c3cc(Cl)ccc3O)cc12 the Potency was inconclusive: 16.4 µM [inhibitor, single point].
In the case of CCOC(=O)c1c(NC(=O)C2=C(C)NC(=S)NC2c2ccc(CC)cc2)sc(C)c1C (centres undefined), the Potency was active: 6.51 µM.
With CC(C)(C)N(Cc1ccccc1)C(=O)CCc1ccccc1 the Potency was inconclusive: 29.1 µM [inhibitor, single point].
With O=C(c1ccc(Cl)c(S(=O)(=O)N2CCCCCC2)c1)N1CCCC1 the Potency was inconclusive: 18.3 µM [inhibitor, single point].
With CCN(CC)S(=O)(=O)c1ccc(-c2nnc(SCC(=O)N3c4ccccc4CC3C)n2CC)cc1 (centres undefined) the Potency was inconclusive: 18.4 µM [inhibitor, partial curve, poor fit].
In the case of O=C(NC1CCCCCC1)c1ccc(=O)n(Cc2ccccc2)n1, the Potency was inconclusive: 20.6 µM [inhibitor, single point].
With CCc1cccc2c(/C=N/NC(=O)c3cccc(S(=O)(=O)Nc4ccccc4Cl)c3)c[nH]c12 the “activity change, negative = inhibition” value was inactive: -12.8%.
In the case of CN(C(=O)COc1ccc(Oc2ccccc2)cc1)C1CCS(=O)(=O)C1 (centres undefined), the “activity change, negative = inhibition” value was inactive: -22.9%.
For COC(=O)CCC(=O)N1CCCC(C(=O)c2ccc(Cl)cc2C)C1 (centres undefined), the “activity change, negative = inhibition” value was inactive: -2.3%.
With CCC(C)(C)n1nnnc1C(c1cc2ccc(OC)cc2[nH]c1=O)N1CCc2ccccc21 (centres undefined) the Potency was inconclusive: 29.1 µM [inhibitor, single point].
For Cc1cccc(C)c1OCCSc1nc2ccccc2n1CC(=O)O, the Potency was inconclusive: 11.2 µM [activator, partial curve, poor fit].
With Cc1cccc(N2C(=O)C3C4CC(=O)C(c5ccccc54)C3C2=O)c1C (centres undefined) the “activity change, negative = inhibition” value was inactive: 0.395%.
With CCN(C[C@H]1N[C@@](Cc2ccccc2)(C(=O)OC)[C@H]2C(=O)N(Cc3ccccc3)C(=O)[C@@H]12)S(=O)(=O)c1ccccc1 the “activity change, negative = inhibition” value was inactive: -8.09%.
With CC(=O)NS(=O)(=O)c1ccc(NC(=O)c2ccc(Cl)cc2[N+](=O)[O-])cc1 the “activity change, negative = inhibition” value was inactive: 4.64%.
For CCn1c(C)nc2cc(C(=O)NNC(=S)NC(=O)c3ccccc3)ccc21, the “activity change, negative = inhibition” value was inactive: -14.9%.
In the case of COc1ccc(-c2cc(C(F)(F)F)nc(-n3ccnc3C)n2)cc1, the Potency was active: 25.9 µM.
With COc1ccc(CCNC(=S)Nc2cccc(C)c2C)cc1 the “activity change, negative = inhibition” value was inactive: -15.8%.
In the case of COc1ccc(CC(=O)N2CCc3ccccc32)cc1, the Potency was inconclusive: 25.9 µM [activator, single point].
With CCOC(=O)c1c(C)[nH]c(C(=O)OCC(=O)Nc2cc(C)nn2-c2ccccc2)c1C the Potency was inconclusive: 18.3 µM [inhibitor, partial curve].
With CC(C)C(=O)Nc1nnc(Cc2c[nH]c3ccccc23)s1 the “activity change, negative = inhibition” value was inactive: 22%.
In the case of Cc1ccc(NC(=O)c2cn(-c3cccc(C)n3)cn2)cc1, the Potency was inconclusive: 9.2 µM [activator, partial curve].
With O=S(=O)(NCCc1ccncc1)c1ccc(S(=O)(=O)N2CCCCCC2)cc1 the Potency was inconclusive: 35.5 µM [inhibitor, single point].
For O=c1cc(Cl)c(-c2ccccc2)nn1Cc1ccc(Cl)cc1, the “activity change, negative = inhibition” value was inactive: 16.9%.
For COc1ccc(-n2nnnc2SCc2nc3ccccc3s2)cc1, the Potency was inconclusive: 14.6 µM [activator, partial curve].
For CC(/C=N\N1CCN(Cc2ccc(C)cc2)CC1)=C\c1ccccc1, the “activity change, negative = inhibition” value was inactive: 13.8%.
For COc1ccc(CN(C(=O)c2oc3cc(C)c(C)cc3c2C)C2CCS(=O)(=O)C2)cc1OC (centres undefined), the Potency was inconclusive: 8.2 µM [inhibitor, partial curve].
In the case of COc1ccc(N2CCN(S(=O)(=O)c3ccc(-n4cnnn4)c(C)c3)CC2)cc1, the Potency was inconclusive: 20.6 µM [activator, partial curve, poor fit].
With O=C(CN1CCN(c2ccc(F)cc2)CC1)Nc1ccccc1C(=O)NCCc1ccccc1 the Potency was inconclusive: 10 µM [inhibitor, partial curve].
For O=c1c2ccccc2nc(-c2ccccc2Cl)n1O, the “activity change, negative = inhibition” value was inactive: -5.95%.
For CCN(CC)c1ccc(Nc2nc(N3CCOCC3)c3ccccc3n2)cc1, the Potency was inconclusive: 13 µM [inhibitor, partial curve].
In the case of CCC(=O)N1CCN(c2ccccc2NC(=O)COc2cc(C)ccc2C(C)C)CC1, the Potency was inconclusive: 23.1 µM [inhibitor, partial curve, poor fit].
With CN(C)c1cccc(NC(=O)c2cccc3ccccc23)c1 the “activity change, negative = inhibition” value was inactive: -2.82%.
For CC(C)(C)OC(=O)N[C@@H](COCc1ccccc1)C(=O)N[C@@H](CO)[C@H](O)[C@@H]1C[C@@H]1C(=O)NC1CC1, the Potency was inconclusive: 1.16 µM [inhibitor, single point].
For Clc1ccc2c(c1)[C@H]1OCC[C@H]1[C@@H](c1ccco1)N2, the Potency was inconclusive: 16.4 µM [activator, partial curve].
In the case of O=c1oc2ccc(C#CC3(O)CCCCC3)cc2cc1-n1cc(-c2ccsc2)nn1, the “activity change, negative = inhibition” value was inactive: 19.7%.
For COc1ccc(NC(=O)CN2C(=O)C(C)Oc3ccccc32)c(OC)c1 (centres undefined), the “activity change, negative = inhibition” value was inactive: 0.13%.
For COc1ccnc(Oc2ccccc2)n1, the Potency was inconclusive: 25.9 µM [activator, partial curve, poor fit].
In the case of CN(CC(=O)Nc1c(Cl)cccc1Cl)C(=O)CNC(=O)c1ccc2c(c1)OCO2, the “activity change, negative = inhibition” value was inactive: -1.32%.
With CNc1ccc(C(=O)c2ccccc2C(=O)O)cc1[N+](=O)[O-] the “activity change, negative = inhibition” value was inactive: 6.72%.
